Laboratory results: PubChem BioAssay (NCATS)
Inconclusive results, whose numbers are uncertain, are shown with a selection of clear calls. For some assays here: Where the call is inconclusive, the potency comes from a doubtful curve fit. Activity calls are given as the source filed them. Unless noted, the call rests on the fitted dose curve; in most records, active means well fitted curve in the direction sought with a large enough effect; inconclusive means small, poorly fitted or top-dose-only effect, or another doubt; inactive means no such curve, though single readings can be large; an effect the other way counts as inactive or inconclusive.

By UniProt entry, the sequences of proteins in these tests, tags left out. Where a name states a change or a piece, a line headed by the entry shows the natural chain unless it says otherwise.
UniProt O95398: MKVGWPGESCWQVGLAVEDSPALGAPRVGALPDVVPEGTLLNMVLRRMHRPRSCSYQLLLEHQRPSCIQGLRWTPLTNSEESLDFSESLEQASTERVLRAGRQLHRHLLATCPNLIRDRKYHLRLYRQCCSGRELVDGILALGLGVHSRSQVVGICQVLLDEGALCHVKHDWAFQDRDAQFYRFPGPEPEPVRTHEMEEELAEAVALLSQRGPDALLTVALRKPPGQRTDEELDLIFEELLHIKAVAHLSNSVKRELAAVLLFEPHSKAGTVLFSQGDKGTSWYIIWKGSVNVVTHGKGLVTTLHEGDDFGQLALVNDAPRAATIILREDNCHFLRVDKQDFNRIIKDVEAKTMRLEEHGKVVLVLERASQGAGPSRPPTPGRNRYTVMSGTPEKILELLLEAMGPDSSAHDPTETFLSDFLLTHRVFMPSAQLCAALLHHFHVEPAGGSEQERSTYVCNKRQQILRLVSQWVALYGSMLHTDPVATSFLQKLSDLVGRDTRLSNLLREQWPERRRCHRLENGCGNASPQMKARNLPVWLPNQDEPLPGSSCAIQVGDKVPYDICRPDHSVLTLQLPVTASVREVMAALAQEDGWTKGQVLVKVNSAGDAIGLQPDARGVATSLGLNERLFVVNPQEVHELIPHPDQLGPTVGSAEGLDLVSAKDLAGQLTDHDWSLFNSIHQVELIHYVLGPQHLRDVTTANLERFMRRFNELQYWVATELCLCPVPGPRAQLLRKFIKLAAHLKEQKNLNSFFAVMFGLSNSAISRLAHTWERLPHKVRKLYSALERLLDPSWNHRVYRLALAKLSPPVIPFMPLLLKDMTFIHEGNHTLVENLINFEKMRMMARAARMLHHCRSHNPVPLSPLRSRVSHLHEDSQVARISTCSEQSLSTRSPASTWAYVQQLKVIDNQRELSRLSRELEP
UniProt P27695, whole entry, looked up: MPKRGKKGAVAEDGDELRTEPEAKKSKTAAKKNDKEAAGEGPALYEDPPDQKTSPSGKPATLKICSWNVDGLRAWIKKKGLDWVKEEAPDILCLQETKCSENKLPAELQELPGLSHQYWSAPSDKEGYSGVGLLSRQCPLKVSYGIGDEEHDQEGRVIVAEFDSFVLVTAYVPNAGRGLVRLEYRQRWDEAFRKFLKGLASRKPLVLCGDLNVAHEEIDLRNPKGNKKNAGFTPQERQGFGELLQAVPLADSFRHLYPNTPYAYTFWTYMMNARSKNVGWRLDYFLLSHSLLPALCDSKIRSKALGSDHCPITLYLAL
UniProt P15289: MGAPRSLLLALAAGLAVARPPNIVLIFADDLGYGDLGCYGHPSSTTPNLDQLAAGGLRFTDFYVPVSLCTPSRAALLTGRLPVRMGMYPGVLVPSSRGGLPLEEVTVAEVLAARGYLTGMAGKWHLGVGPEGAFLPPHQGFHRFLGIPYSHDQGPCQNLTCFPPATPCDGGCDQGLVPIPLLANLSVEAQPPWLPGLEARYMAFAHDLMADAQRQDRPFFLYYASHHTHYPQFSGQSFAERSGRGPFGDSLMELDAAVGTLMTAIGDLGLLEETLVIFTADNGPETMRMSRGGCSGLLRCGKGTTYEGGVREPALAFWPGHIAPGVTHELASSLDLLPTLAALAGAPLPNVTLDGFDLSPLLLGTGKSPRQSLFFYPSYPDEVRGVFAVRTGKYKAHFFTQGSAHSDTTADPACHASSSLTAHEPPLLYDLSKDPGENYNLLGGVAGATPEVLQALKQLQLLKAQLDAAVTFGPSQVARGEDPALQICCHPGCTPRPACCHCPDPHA
UniProt P08482: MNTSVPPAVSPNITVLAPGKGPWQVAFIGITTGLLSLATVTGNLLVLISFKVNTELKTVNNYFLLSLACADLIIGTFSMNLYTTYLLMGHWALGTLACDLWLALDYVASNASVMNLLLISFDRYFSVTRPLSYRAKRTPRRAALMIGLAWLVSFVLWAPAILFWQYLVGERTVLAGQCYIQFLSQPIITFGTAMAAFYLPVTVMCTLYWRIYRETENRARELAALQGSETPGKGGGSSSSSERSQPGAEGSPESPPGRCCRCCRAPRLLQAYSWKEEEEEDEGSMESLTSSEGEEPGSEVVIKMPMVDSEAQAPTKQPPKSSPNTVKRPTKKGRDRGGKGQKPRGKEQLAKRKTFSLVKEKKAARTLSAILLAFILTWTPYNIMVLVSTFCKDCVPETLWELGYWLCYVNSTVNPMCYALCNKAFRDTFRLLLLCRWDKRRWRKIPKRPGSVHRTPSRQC
UniProt P54132: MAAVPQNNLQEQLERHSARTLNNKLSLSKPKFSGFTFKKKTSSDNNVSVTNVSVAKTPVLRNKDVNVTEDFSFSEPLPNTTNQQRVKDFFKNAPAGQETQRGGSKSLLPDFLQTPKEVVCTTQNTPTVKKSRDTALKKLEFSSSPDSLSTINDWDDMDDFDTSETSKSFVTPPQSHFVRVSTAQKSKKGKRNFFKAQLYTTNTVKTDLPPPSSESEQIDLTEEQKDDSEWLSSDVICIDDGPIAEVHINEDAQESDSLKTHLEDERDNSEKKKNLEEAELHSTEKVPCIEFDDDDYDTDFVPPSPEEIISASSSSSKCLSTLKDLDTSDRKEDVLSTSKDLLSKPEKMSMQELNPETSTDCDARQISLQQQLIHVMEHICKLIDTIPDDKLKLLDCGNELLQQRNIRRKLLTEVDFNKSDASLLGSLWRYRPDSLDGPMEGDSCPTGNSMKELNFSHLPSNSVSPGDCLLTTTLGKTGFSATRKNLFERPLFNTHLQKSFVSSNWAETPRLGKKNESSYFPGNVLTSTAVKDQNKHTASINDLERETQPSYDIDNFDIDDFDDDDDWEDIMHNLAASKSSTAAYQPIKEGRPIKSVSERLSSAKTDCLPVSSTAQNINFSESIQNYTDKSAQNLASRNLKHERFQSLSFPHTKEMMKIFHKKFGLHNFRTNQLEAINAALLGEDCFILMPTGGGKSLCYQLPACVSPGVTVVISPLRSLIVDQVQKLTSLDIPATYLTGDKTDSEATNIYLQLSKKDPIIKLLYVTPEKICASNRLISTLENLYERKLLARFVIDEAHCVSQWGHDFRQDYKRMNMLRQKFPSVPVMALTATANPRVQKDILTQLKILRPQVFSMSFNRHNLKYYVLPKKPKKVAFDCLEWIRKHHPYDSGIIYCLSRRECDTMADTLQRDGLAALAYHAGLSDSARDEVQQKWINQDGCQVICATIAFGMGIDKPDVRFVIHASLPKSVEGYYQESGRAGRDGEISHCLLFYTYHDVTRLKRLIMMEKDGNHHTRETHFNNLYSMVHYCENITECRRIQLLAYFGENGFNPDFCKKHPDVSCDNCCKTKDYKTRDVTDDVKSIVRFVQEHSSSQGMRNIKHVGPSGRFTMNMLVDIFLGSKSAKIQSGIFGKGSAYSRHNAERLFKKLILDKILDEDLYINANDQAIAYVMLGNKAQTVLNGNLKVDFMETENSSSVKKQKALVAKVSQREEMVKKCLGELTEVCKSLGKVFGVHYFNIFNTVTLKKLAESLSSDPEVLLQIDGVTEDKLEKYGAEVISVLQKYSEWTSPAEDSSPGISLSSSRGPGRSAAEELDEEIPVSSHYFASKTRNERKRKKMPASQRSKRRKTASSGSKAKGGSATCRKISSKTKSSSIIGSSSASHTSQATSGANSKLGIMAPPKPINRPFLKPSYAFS
UniProt O15648: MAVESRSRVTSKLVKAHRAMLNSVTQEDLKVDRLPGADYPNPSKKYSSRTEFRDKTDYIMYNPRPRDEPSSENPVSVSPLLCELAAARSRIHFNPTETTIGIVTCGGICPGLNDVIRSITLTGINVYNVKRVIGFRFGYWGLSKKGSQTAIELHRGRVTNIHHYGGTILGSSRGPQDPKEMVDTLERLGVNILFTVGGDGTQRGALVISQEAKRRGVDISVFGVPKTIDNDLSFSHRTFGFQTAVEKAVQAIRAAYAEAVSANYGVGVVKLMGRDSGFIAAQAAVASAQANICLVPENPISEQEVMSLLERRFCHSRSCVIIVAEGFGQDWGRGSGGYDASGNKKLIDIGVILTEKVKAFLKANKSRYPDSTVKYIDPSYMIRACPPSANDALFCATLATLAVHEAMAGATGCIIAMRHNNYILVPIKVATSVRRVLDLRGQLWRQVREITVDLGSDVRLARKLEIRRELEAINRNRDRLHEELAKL
UniProt Q99549: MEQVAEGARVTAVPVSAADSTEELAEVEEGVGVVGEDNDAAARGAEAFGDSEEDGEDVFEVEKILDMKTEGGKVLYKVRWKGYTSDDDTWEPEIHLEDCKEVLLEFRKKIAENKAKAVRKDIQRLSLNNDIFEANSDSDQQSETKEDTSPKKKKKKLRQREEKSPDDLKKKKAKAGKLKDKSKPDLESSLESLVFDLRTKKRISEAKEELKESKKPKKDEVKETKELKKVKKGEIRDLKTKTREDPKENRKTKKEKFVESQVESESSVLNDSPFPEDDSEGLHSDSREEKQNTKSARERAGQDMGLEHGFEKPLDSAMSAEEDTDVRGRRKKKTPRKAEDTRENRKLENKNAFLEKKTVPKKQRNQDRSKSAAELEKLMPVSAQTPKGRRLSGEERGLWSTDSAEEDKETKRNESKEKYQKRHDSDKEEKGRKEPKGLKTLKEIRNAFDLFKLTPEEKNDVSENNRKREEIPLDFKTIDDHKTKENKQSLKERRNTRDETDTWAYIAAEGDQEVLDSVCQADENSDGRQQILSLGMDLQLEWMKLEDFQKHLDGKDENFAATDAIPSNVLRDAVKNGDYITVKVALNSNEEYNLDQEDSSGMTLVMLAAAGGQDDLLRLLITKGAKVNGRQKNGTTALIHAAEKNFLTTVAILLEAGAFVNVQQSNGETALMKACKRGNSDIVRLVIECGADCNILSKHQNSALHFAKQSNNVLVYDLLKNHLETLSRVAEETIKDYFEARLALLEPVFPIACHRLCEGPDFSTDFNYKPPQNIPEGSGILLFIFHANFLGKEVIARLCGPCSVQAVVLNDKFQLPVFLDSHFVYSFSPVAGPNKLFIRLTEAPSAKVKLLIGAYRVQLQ
UniProt P21728, whole entry, looked up: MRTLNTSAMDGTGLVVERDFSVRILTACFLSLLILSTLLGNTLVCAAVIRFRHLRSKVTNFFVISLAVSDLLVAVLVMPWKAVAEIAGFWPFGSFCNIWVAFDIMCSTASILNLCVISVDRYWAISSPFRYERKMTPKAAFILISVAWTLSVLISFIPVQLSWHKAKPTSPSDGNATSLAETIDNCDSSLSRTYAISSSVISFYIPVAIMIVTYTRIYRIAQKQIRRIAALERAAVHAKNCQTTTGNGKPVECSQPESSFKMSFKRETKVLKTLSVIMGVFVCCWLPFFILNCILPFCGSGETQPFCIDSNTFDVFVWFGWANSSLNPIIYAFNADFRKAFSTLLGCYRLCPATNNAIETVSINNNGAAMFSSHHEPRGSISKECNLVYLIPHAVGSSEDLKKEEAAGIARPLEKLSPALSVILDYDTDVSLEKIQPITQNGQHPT

Tests used:
[1] = molecular target: Rap guanine nucleotide exchange factor 3 (Homo sapiens) (UniProt O95398); assay: Counterscreen qHTS for agonist of cAMP-regulated guanine nucleotide exchange factor 3 (EPAC1) (AID 1645889); conditions: EPAC1 Rap1B-BODIPY-GDP exchange, fluorescence; activation: at 154 µM (top of the series) unless noted; further: potency means the concentration at half of the fitted maximal effect; nearly all actives have a fitted effect of over 40% in size
Method in brief: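 Rap1B–BODIPY-GDP (250 nM) with 50 uM GDP; compounds pin-transferred to 9.74 nM–152 uM final (activator) or from 7.32 nM upwards (inhibitor). Fluorescence Ex/Em 480/540 nm read at 5 and 30 min, then after adding cAMP or buffer, at room temperature.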

[2] = molecular target: DNA repair nuclease/redox regulator APEX1 (Homo sapiens) (UniProt P27695); assay: qHTS Validation Assay for Inhibitors of the Human Apurinic/apyrimidinic Endonuclease 1 (APE1) (AID 1705; further: potency means the concentration at half of the fitted maximal effect)
Method in brief: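 Substrate: 50 nM final fluorophore/quencher THF-abasic duplex. Enzyme preincubated with compounds 15 min, RT. Progress derived from fluorescence difference, third minus first kinetic read.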

[3] = molecular target: Arylsulfatase A (Homo sapiens) (UniProt P15289); assay: qHTS screen for enhancers of Arylsulfatase A (ASA1): LOPAC Validation Assay (AID 720538); further: potency means the concentration at half of the fitted maximal effect
Method in brief: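 Cell-based enhancement test: residual ASA activity in SV40-transformed I179S patient fibroblasts is measured by pNCS turnover (0.5mM final, 14h, room temperature) following 48h compound incubation; higher fluorescence indicates activation.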

[4] = qHTS Assay for Identifying Gametocytocidal Compounds (AID 743244); further: potency means the concentration at half of the fitted maximal effect; conditions: P. falciparum 3D7 stage III-V gametocytes, alamarBlue, 72 h; max response: active compounds read low
Method in brief: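 A resazurin-based viability read-out was applied to mature P. falciparum gametocytes: 72 h compound treatment, then 24 h dye incubation, with falling fluorescence signalling gametocytocidal effect.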

[5] = molecular target: Mitogen-activated protein kinase 10 (Mus musculus) (UniProt Q61831); assay: JNK3 AlphaScreen Assay (AID 530; active means well fitted curve in either direction with a large enough effect, not every such curve was filed as active; inconclusive means small, poorly fitted or top-dose-only effect, or another doubt;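 further: kinase came from lysate of stimulated human HepG2 cells; potency means the concentration at half of the fitted maximal effect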); conditions: JNK3 lysate, c-Jun phosphorylation; activity change, negative = inhibition: at 57.1 µM (top of the series)
Method in brief: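 Pre-activated (IL-1β/TNFα) JNK3 in HepG2 lysates phosphorylates biotin-GST-cJun(1-79), 10 uM ATP; anti-phospho-cJun(Ser73) AlphaScreen read at room temperature, pH 7.6 Tris buffer. Compounds pre-incubated 15 min as titrations.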

[6] = qHTS Assay for Identification of Small Molecule Antagonists for NFkB Signaling Pathway (AID 895; active means well fitted inhibition curve with a large enough effect in the signal ratio, with a control signal flat, not every such curve was filed as active; inconclusive means small, poorly fitted or top-dose-only effect, or effect the other way, or a change in a side signal; the % refers to the signal ratio; further: on the % scale 0 is the no-effect control and ±100 the full control effect); conditions: NFkB beta-lactamase reporter cells, FRET ratio 460/530; activity change, negative = inhibition: at 38.3 µM (top of the series) unless noted
Method in brief: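 ME-180 NFkB-bla cells (beta-lactamase under NFkB response element), plated overnight, treated with compound then 10 pM TNF alpha (about EC50) for 5 hrs at 37 C. LiveBLAzer FRET read at 460/530 nm emission, 405 nm excitation.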

[7] = qHTS Assay for Identification of Small Molecule Antagonists for Thrombopoietin (TPO) Signaling Pathway (AID 918); conditions: TPO-dependent cell signaling reporter, antagonist mode; activity change, negative = inhibition: at 38.5 µM (top of the series)
Method in brief: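 Murine Ba/F3 cells expressing human TPO receptor and a Glycoprotein IIb promoter-luciferase reporter, IL-3-starved overnight, treated with compound plus TPO at EC50 (26 pM final). After 24 h at 37 C, luminescence read to detect inhibitors.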

[8] = molecular target: Muscarinic acetylcholine receptor M1 (Rattus norvegicus) (UniProt P08482); assay: qHTS Assay for Antagonists of Acetylcholine Muscarinic M1 Receptor: Kinetic Measurement of Intracellular Calcium Response (AID 943); further: potency means the concentration at half of the fitted maximal effect; nearly all actives have a fitted effect of over 75% in size
Method in brief: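 CHO cells expressing rat M1 receptor, Fluo-4 loaded, preincubated 10 min with compound, then stimulated with EC80 carbachol (100 nM final). Kinetic calcium fluorescence over 4 min; response taken as peak over basal signal.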

[9] = molecular target: Endonuclease 4 (Escherichia coli (strain K12)) (UniProt P0A6C1); assay: Counterscreen for APE1 Inhibitors: qHTS Validation Assay for Inhibitors of Endonuclease IV (AID 1708); further: potency means the concentration at half of the fitted maximal effect
Method in brief: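 E. coli EndoIV at 2 nM final, preincubated 15 min at room temperature with compound, then 50 nM TAMRA/BHQ-2 THF abasic-site duplex added. Buffer: 50 mM Tris-HCl pH 7.5, 50 mM NaCl, 2 mM MgCl2, 1 mM DTT, 0.01% Tween-20. Kinetic fluorescence increase, third minus first read.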

[10] = qHTS for differential inhibitors of proliferation of Plasmodium falciparum line 7G8 (AID 1815);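 further: potency means the concentration at half of the fitted maximal effect; parasite growth measured after three days of incubation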
[11] = qHTS for differential inhibitors of proliferation of Plasmodium falciparum line GB4 (AID 1816); conditions: Potency: Plasmodium falciparum GB4 proliferation inhibition;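 further: potency means the concentration at half of the fitted maximal effect; parasite growth measured after 72 h incubation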
[12] = qHTS for differential inhibitors of proliferation of Plasmodium falciparum line 3D7 (AID 1876); further: potency means the concentration at half of the fitted maximal effect
[13] = qHTS for differential inhibitors of proliferation of Plasmodium falciparum line D10 (AID 1877);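 further: potency means the concentration at half of the fitted maximal effect; parasites grown with compound for 72 h before DNA staining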
[14] = qHTS for differential inhibitors of proliferation of Plasmodium falciparum line W2 (AID 1883); conditions: Potency: Plasmodium falciparum W2 proliferation inhibition;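 further: potency means the concentration at half of the fitted maximal effect; parasites grown with compound for 72 h before lysis and staining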
[15] = qHTS for differential inhibitors of proliferation of Plasmodium falciparum line HB3 (AID 1886); conditions: Potency: Plasmodium falciparum HB3 proliferation inhibition;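 further: potency means the concentration at half of the fitted maximal effect; parasites grown with compound for 72 h before SYBR Green readout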
[16] = molecular target: RecQ-like DNA helicase BLM (Homo sapiens) (UniProt P54132); assay: qHTS Validation Assay for Inhibitors of Bloom's syndrome helicase (BLM) (AID 2364); further: potency means the concentration at half of the fitted maximal effect
Method in brief: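 50 nM BLM preincubated 15 min at room temperature with compound in pH 8.0 Tris buffer containing 2.5 ug/ml poly(dI-dC); started with 200 nM TAMRA/BHQ-2 forked duplex and 2 mM ATP (final). Unwinding read as TAMRA fluorescence increase, two reads 2 h apart.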

[17] = Validation screen for inhibitors of Lassa infection (AID 463096; calls by dose curve; further: potency means the concentration at half of the fitted maximal effect)
[18] = molecular target: ATP-dependent 6-phosphofructokinase (Trypanosoma brucei brucei) (UniProt O15648); assay: qHTS Validation Assay to Find Inhibitors of T. brucei phosphofructokinase (AID 485368); further: potency means the concentration at half of the fitted maximal effect
Method in brief: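 Enzyme reaction in triethanolamine buffer pH 8.0 with 5 mM MgCl2, 0.01% Tween20 and 0.1% BSA; PFK 1.25 nM, F6P 0.5 mM, ATP 0.1 mM, 45 min RT. ADP quantified by ADP-Glo.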

[19] = molecular target: M-phase phosphoprotein 8 (Homo sapiens) (UniProt Q99549); assay: qHTS Validation Assay for Inhibitors for MPP8 Chromodomain Interactions with Methylated Histone Tails (AID 488949);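 further: 50 nM MPP8 with 50 nM peptide preformed then compounds added for 30 min; AlphaScreen signal from MPP8 chromodomain bound to biotinylated H3K9me3 peptide; top concentration of the series differs between compounds; on the % scale 0 is the no-effect control and ±100 the full control effect; nearly all actives have a fitted effect of over 55% in size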
Method in brief: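 Chemiluminescent proximity assay: histidine-tag capture via nickel acceptor beads, biotin peptide via streptavidin donor beads. Protein and peptide each at 50 nM, pH 7.4, with 30 min incubations at room temperature for complex formation, compound exposure and bead binding.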

[20] = molecular target: D(1A) dopamine receptor (Homo sapiens) (UniProt P21728); assay: HTS Assay for Allosteric Agonists of the Human D1 Dopamine Receptor: Primary Screen for Potentiators (AID 488982); further: 0% is about no effect
Method in brief: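 Tetracycline-induced HEK293 Trex D1 cells with forced coupling to calcium, loaded with no-wash calcium dye; kinetic fluorescence read 180 s after compound addition for agonism, then a further 180 s after an EC20 dopamine challenge for potentiation.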

[21] = qHTS for Inhibitors of ATXN expression: Validation (AID 588378); further: on the % scale 0 is the no-effect control and ±100 the full control effect; nearly all actives have a fitted effect of over 75% in size
Method in brief: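 After a 2 h attachment and 24 h compound incubation, HEK293-ATXN2-FFLuc wells are read for fluorescence at 405 nm excitation/525 nm emission as a viability measure, then for Bright-Glo luminescence reflecting ATXN2 expression.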

[22] = HTS Assay for Allosteric Antagonists of the Human D2 Dopamine Receptor: Hit Validation in HTRF (AID 624455)
Method in brief: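 Hit validation in cells stably expressing the D1 dopamine receptor, run in HTRF format. Compounds were tested for their ability to inhibit the D1-mediated response.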

CCOC(=O)[C@]12Cc3cc(C)ccc3[C@H]1N(C1CCCCC1)C(=O)c1ccccc12
inconclusive: Potency [1] 28.2 µM [activator, partial curve, poor fit]

C[N+](C)(C)CCCCCCCCCC[N+](C)(C)C
active: Potency [3] 2.69 µM
inconclusive: Potency [2] 44.7 µM [inhibitor, single point] | Potency [4] 2.82 µM [inhibitor, partial curve]

Clc1cc(I)cc(Cl)c1NC1=NCCN1
active: Potency [8] 15.8 µM | Potency [14] 14.1 µM
inconclusive: Potency [5] 31.6 µM [activator, single point] | activity change, negative = inhibition [7] -26% [phenotype inactive] | Potency [9] 39.8 µM [inhibitor, partial curve, poor fit] | Potency [10] 2.24 µM [inhibitor, full curve, poor fit] | Potency [11] 11.2 µM [inhibitor, partial curve] | Potency [12] 10 µM [inhibitor, single point] | Potency [13] 11.2 µM [inhibitor, single point] | Potency [15] 14.1 µM [inhibitor, partial curve] | Potency [16] 0.126 µM [inhibitor, full curve, poor fit] | Potency [17] 14.1 µM [activator, partial curve, poor fit] | Potency [18] 0.0426 µM [activator, full curve, poor fit] | Potency [22] 18.4 µM [inhibitor, partial curve, poor fit]
inactive: Potency [6] | Potency [19] | Potency [20] | Potency [21] | Potency [3]
